Assay results from doi:10.1101/2023.03.09.531914.
These are yes or no findings as the source states them, for the method shown. Binding seen in cells or lysates may run through a third protein. Some entries that bind do so weakly or less than the wild type. For some assays here: Sequences can lack the tags named with a protein.

By UniProt entry, the sequences of proteins in these tests, tags left out. Where a name states a change or a piece, a line headed by the entry shows the natural chain unless it says otherwise.
UniProt O75152, whole entry: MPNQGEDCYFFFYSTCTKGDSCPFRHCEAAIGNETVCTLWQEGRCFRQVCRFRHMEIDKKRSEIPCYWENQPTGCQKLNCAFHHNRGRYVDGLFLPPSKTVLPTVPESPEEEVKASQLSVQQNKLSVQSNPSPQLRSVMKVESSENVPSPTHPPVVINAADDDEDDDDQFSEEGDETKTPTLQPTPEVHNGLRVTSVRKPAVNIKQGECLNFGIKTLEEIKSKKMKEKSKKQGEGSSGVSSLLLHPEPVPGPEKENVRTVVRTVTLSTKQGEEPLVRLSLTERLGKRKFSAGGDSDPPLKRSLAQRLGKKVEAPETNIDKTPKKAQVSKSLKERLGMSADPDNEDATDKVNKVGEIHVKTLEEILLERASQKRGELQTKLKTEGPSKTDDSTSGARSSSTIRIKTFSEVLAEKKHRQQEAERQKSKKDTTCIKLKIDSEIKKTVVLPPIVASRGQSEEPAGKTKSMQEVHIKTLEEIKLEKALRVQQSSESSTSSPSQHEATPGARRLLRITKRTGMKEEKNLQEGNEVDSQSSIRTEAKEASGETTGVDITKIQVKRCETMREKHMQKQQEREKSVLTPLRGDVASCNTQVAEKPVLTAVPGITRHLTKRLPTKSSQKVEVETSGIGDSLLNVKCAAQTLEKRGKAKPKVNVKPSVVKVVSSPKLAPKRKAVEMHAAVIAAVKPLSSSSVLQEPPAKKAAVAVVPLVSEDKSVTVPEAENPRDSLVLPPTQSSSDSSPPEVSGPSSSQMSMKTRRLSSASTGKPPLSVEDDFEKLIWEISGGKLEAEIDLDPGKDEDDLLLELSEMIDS
UniProt O00505, whole entry: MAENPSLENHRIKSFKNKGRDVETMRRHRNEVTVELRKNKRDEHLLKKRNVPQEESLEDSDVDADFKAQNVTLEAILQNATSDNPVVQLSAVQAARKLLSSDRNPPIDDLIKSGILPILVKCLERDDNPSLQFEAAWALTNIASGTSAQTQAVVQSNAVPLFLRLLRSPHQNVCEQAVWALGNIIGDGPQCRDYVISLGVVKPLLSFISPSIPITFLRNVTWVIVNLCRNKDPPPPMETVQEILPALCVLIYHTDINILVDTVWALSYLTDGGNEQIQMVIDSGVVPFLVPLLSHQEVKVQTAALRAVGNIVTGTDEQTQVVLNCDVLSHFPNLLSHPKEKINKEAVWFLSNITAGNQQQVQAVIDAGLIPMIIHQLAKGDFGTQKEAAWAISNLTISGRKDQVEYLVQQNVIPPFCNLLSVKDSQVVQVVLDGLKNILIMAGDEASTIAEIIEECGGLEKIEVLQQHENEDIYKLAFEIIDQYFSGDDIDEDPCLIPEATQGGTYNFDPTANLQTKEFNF

Legend:
Test in all cases: co-IP
[1] = target: ZC3H11A(KR5>A/Δ661-699)-Flag (human) (UniProt O75152)
[2] = target: ZC3H11A(wt)-Flag (expressed in HeLa cells) (human) (UniProt O75152)
PABPN1-Flag = target: T1, PABPN1-Flag (UniProt Q86U42)
T1 sequence: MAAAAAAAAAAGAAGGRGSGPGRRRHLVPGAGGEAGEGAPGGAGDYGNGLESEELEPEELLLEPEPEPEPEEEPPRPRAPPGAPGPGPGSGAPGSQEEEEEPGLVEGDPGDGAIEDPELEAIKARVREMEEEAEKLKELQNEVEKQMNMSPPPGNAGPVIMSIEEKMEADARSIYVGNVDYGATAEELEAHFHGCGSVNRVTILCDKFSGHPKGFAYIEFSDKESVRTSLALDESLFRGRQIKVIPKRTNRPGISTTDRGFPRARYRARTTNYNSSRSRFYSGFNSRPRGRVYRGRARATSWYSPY

[3] = target: ZC3H11A(wt)-Flag (expressed in HEK293T cells) (human) (UniProt O75152)
[4] = target: ZC3H11A(3C>A)-Flag (human) (UniProt O75152)

KPNA3 (endogenous, HeLa cells) (from UniProt O00505 1-521)
binding [1]: no binding
binding [2]: binds

ZC3H11A(3C>A)-HA (from UniProt O75152 1-810)
binding (PABPN1-Flag): no binding

ZC3H11A(C8A)-HA (from UniProt O75152 1-810)
binding (PABPN1-Flag): no binding

ZC3H11A(C37A)-HA (from UniProt O75152 1-810)
binding (PABPN1-Flag): binds

ZC3H11A(C66A)-HA (from UniProt O75152 1-810)
binding (PABPN1-Flag): no binding

ZC3H11A(wt)-HA (from UniProt O75152 1-810)
binding (PABPN1-Flag): binds

B1: THOC5-HA (protein, UniProt Q13769 1-683)
chain: MSSESSKKRKPKVIRSDGAPAEGKRNRSDTEQEGKYYSEEAEVDLRDPGRDYELYKYTCQELQRLMAEIQDLKSRGGKDVAIEIEERRIQSCVHFMTLKKLNRLAHIRLKKGRDQTHEAKQKVDAYHLQLQNLLYEVMHLQKEITKCLEFKSKHEEIDLVSLEEFYKEAPPDISKAEVTMGDPHQQTLARLDWELEQRKRLAEKYRECLSNKEKILKEIEVKKEYLSSLQPRLNSIMQASLPVQEYLFMPFDQAHKQYETARHLPPPLYVLFVQATAYGQACDKTLSVAIEGSVDEAKALFKPPEDSQDDESDSDAEEEQTTKRRRPTLGVQLDDKRKEMLKRHPLSVMLDLKCKDDSVLHLTFYYLMNLNIMTVKAKVTTAMELITPISAGDLLSPDSVLSCLYPGDHGKKTPNPANQYQFDKVGILTLSDYVLELGHPYLWVQKLGGLHFPKEQPQQTVIADHSLSASHMETTMKLLKTRVQSRLALHKQFASLEHGIVPVTSDCQYLFPAKVVSRLVKWVTVAHEDYMELHFTKDIVDAGLAGDTNLYYMALIERGTAKLQAAVVLNPGYSSIPPVFQLCLNWKGEKTNSNDDNIRAMEGEVNVCYKELCGPWPSHQLLTNQLQRLCVLLDVYLETESHDDSVEGPKEFPQEKMCLRLFRGPSRMKPFKYNHPQGFFSHR
binding [3]: binds
binding [4]: binds

B2: THOC1-HA (protein, UniProt Q96FV9 1-657)
chain: MSPTPPLFSLPEARTRFTKSTREALNNKNIKPLLSTFSQVPGSENEKKCTLDQAFRGILEEEIINHSSCENVLAIISLAIGGVTEGICTASTPFVLLGDVLDCLPLDQCDTIFTFVEKNVATWKSNTFYSAGKNYLLRMCNDLLRRLSKSQNTVFCGRIQLFLARLFPLSEKSGLNLQSQFNLENVTVFNTNEQESTLGQKHTEDREEGMDVEEGEMGDEEAPTTCSIPIDYNLYRKFWSLQDYFRNPVQCYEKISWKTFLKYSEEVLAVFKSYKLDDTQASRKKMEELKTGGEHVYFAKFLTSEKLMDLQLSDSNFRRHILLQYLILFQYLKGQVKFKSSNYVLTDEQSLWIEDTTKSVYQLLSENPPDGERFSKMVEHILNTEENWNSWKNEGCPSFVKERTSDTKPTRIIRKRTAPEDFLGKGPTKKILMGNEELTRLWNLCPDNMEACKSETREHMPTLEEFFEEAIEQADPENMVENEYKAVNNSNYGWRALRLLARRSPHFFQPTNQQFKSLPEYLENMVIKLAKELPPPSEEIKTGEDEDEEDNDALLKENESPDVRRDKPVTGEQIEVFANKLGEQWKILAPYLEMKDSEIRQIECDSEDMKMRAKQLLVAWQDQEGVHATPENLINALNKSGLSDLAESLTNDNETNS
binding [3]: binds
binding [4]: binds
